Data as given in PubChem BioAssay AID1508597 (Cure First, 2020).
Shown is a random part of the about 2,100 reagents, in one setting of the screen. 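Calls flag viability under 80% in either arm, not effects specific to rucaparib; the reference for percent is not stated.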 A reagent listed more than once was tested more than once; the source does not tell the runs apart. Not stated in the record: the 100% reference.

- Test: 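Survival screen with siRNA in ovarian cancer cells derived from patients, with or without rucaparib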 (primary screen)
- System: human ovarian carcinoma lines grown from tumours: OCI-P5x (papillary serous) and OCI-C5x (clear cell)
- Reagent: siRNA pool against human genes, 1.25 pmol siRNA per well
- Timing: 72 h or 96 h, depending on the cell culture
- Conditions: rucaparib 20 µM (about IC30) or vehicle, present until read-out
- Rucaparib or vehicle: Vehicle
- Cell line: OCI-C5x (clear cell)
- Measured: 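Luminescent ATP-based viability assay read 72 or 96 h after transfection, depending on culture, given as normalised percent viability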
- Reading the numbers: viability, normalised: higher = more viable cells remaining
- Hit rule: 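Active when normalised viability falls below 80 percent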
- Calls: active = viability under 80%; inactive = viability 80% or more

Target gene | technical replicate | viability, normalised (%) | Call
NPR2 | 1 | 47 | active
NPR2 | 2 | 52.9 | active
NPR2 | 3 | 46.4 | active
SNCA | 1 | 46.6 | active
SNCA | 2 | 47.2 | active
SNCA | 3 | 43.2 | active
NSD1 | 1 | 50.3 | active
NSD1 | 2 | 38.4 | active
NSD1 | 3 | 42.4 | active
SUPT7L | 1 | 56.5 | active
SUPT7L | 2 | 42.3 | active
SUPT7L | 3 | 41.4 | active
PRKCI | 1 | 37.9 | active
PRKCI | 1 | 55.6 | active
PRKCI | 2 | 51.3 | active
PRKCI | 2 | 49.5 | active
PRKCI | 3 | 43.1 | active
PRKCI | 3 | 41.2 | active
SFPQ | 1 | 30.2 | active
SFPQ | 2 | 36.1 | active
SFPQ | 3 | 34.5 | active
DDX60 | 1 | 47.5 | active
DDX60 | 2 | 48.5 | active
DDX60 | 3 | 52.5 | active
PFKP | 1 | 45.4 | active
PFKP | 2 | 51.8 | active
PFKP | 3 | 44.6 | active
PHIP | 1 | 51.3 | active
PHIP | 2 | 49.7 | active
PHIP | 3 | 58.7 | active
CABIN1 | 1 | 31.7 | active
CABIN1 | 2 | 45.1 | active
CABIN1 | 3 | 26.5 | active
TOP1 | 1 | 62.9 | active
TOP1 | 2 | 61 | active
TOP1 | 3 | 46.6 | active
PRKD2 | 1 | 41.2 | active
PRKD2 | 2 | 41.9 | active
PRKD2 | 3 | 40.4 | active
BAP1 | 1 | 116 | inactive
BAP1 | 1 | 30.9 | active
BAP1 | 2 | 29.6 | active
BAP1 | 2 | 45.2 | active
BAP1 | 3 | 30.2 | active
BAP1 | 3 | 49.7 | active
KPNA3 | 1 | 47.9 | active
KPNA3 | 2 | 50.5 | active
KPNA3 | 3 | 42.2 | active
CCT2 | 1 | 61.3 | active
CCT2 | 2 | 40.6 | active
CCT2 | 3 | 46.6 | active
PRKAR1B | 1 | 47.4 | active
PRKAR1B | 2 | 47.5 | active
PRKAR1B | 3 | 47.9 | active
EME2 | 1 | 55.1 | active
EME2 | 2 | 54.9 | active
EME2 | 3 | 62.9 | active
ENPP2 | 1 | 66.7 | active
ENPP2 | 2 | 60.8 | active
ENPP2 | 3 | 64.6 | active
